{"source": "PubChem BioAssay AID1671195 (Yale University, 2021)", "assay": "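Regulators of LDL receptor activity judged by labelled LDL uptake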 (primary screen)", "cells": "human Huh7 hepatoma cells", "reagent": "siRNA pool against human genes, 18 nM", "time to read-out": "about 2 to 2.5 days of knockdown, then 8 h LDL uptake", "conditions": "DiI-labelled LDL at 30 µg/ml for 8 h, in lipoprotein-deficient serum medium", "measurement": "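Fluorescent LDL signal imaged in cells, scaled to the plate median, robust z-score for each replicate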", "reading the numbers": "robust z-score: higher = more LDL uptake after knockdown", "hit rule": "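Active when two or more replicates show a robust z-score above 2 or below -2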", "note": "This is an unselected part of about 22,000 deposited reagents. In the full data, about 1,510 (6.9%) were called active. 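Active includes knockdowns raising or lowering LDL uptake; positive z-scores mean more uptake, negative mean less.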"}
{"gene": "WFDC10B (WAP four-disulfide core domain 10B)", "robust z-score, replicate 1": -1.04, "robust z-score, replicate 2": -0.884, "robust z-score, replicate 3": -1.12, "activity call": "inactive"}
{"gene": "ZNF134 (zinc finger protein 134)", "robust z-score, replicate 1": 0.324, "robust z-score, replicate 2": 0.76, "robust z-score, replicate 3": 0.865, "activity call": "inactive"}
{"gene": "CCDC70 (coiled-coil domain containing 70)", "robust z-score, replicate 1": 0.0422, "robust z-score, replicate 2": -0.212, "robust z-score, replicate 3": 0.163, "activity call": "inactive"}
{"gene": "HMGCLL1 (3-hydroxy-3-methylglutaryl-CoA lyase like 1)", "robust z-score, replicate 1": 0.0299, "robust z-score, replicate 2": -1.11, "robust z-score, replicate 3": 0.646, "activity call": "inactive"}
{"gene": "RPL7P8 (ribosomal protein L7 pseudogene 8)", "robust z-score, replicate 1": -1.44, "robust z-score, replicate 2": -1.26, "robust z-score, replicate 3": -1.27, "activity call": "inactive"}
{"gene": "KCNG1", "robust z-score, replicate 1": 0.36, "robust z-score, replicate 2": 0.361, "robust z-score, replicate 3": 0.422, "activity call": "inactive"}
{"gene": "LOC390669 (retired record)", "robust z-score, replicate 1": 0.348, "robust z-score, replicate 2": 0.0732, "robust z-score, replicate 3": 0.492, "activity call": "inactive"}
{"gene": "GLYATL1-AS1 (GLYATL1 antisense RNA 1)", "robust z-score, replicate 1": 1.37, "robust z-score, replicate 2": 0.802, "robust z-score, replicate 3": 0.933, "activity call": "inactive"}
{"gene": "DIPK1B (divergent protein kinase domain 1B)", "robust z-score, replicate 1": -0.908, "robust z-score, replicate 2": -1.17, "robust z-score, replicate 3": -0.0406, "activity call": "inactive"}
{"gene": "GATAD1 (GATA zinc finger domain containing 1)", "robust z-score, replicate 1": -0.752, "robust z-score, replicate 2": -0.952, "robust z-score, replicate 3": -0.0912, "activity call": "inactive"}
{"gene": "IHH (Indian hedgehog signaling molecule)", "robust z-score, replicate 1": 0.362, "robust z-score, replicate 2": 1.3, "robust z-score, replicate 3": 0.404, "activity call": "inactive"}
{"gene": "JRK (Jrk helix-turn-helix protein)", "robust z-score, replicate 1": 1.8, "robust z-score, replicate 2": 1.65, "robust z-score, replicate 3": 1.61, "activity call": "inactive"}
{"gene": "HELZ2 (helicase with zinc finger 2)", "robust z-score, replicate 1": -0.23, "robust z-score, replicate 2": 0.801, "robust z-score, replicate 3": 0.0124, "activity call": "inactive"}
{"gene": "MRPS18B (mitochondrial ribosomal protein S18B)", "robust z-score, replicate 1": -2.01, "robust z-score, replicate 2": -0.245, "robust z-score, replicate 3": -0.799, "activity call": "inactive"}
{"gene": "CTSD (cathepsin D)", "robust z-score, replicate 1": 0.533, "robust z-score, replicate 2": 0.00969, "robust z-score, replicate 3": 0.537, "activity call": "inactive"}
{"gene": "DSN1 (DSN1 component of MIS12 kinetochore complex)", "robust z-score, replicate 1": -0.757, "robust z-score, replicate 2": -1.11, "robust z-score, replicate 3": -0.514, "activity call": "inactive"}
{"gene": "OR11L1 (olfactory receptor family 11 subfamily L member 1)", "robust z-score, replicate 1": 1.03, "robust z-score, replicate 2": 0.994, "robust z-score, replicate 3": 0.927, "activity call": "inactive"}
{"gene": "MS4A8 (membrane spanning 4-domains A8)", "robust z-score, replicate 1": 1.51, "robust z-score, replicate 2": 0.967, "robust z-score, replicate 3": 0.648, "activity call": "inactive"}
{"gene": "TNS4 (tensin 4)", "robust z-score, replicate 1": 0.791, "robust z-score, replicate 2": 0.225, "robust z-score, replicate 3": 0.109, "activity call": "inactive"}
{"gene": "KCNK13 (potassium two pore domain channel subfamily K member 13)", "robust z-score, replicate 1": -1.82, "robust z-score, replicate 2": -1.73, "robust z-score, replicate 3": -1.63, "activity call": "inactive"}
{"gene": "AADAC (arylacetamide deacetylase)", "robust z-score, replicate 1": 1.75, "robust z-score, replicate 2": 3.13, "robust z-score, replicate 3": 1.47, "activity call": "inactive"}
{"gene": "RANBP1P1 (RANBP1 pseudogene 1)", "robust z-score, replicate 1": -0.521, "robust z-score, replicate 2": -0.347, "robust z-score, replicate 3": -0.508, "activity call": "inactive"}
{"gene": "ENO4 (enolase 4)", "robust z-score, replicate 1": -0.966, "robust z-score, replicate 2": -0.925, "robust z-score, replicate 3": -0.704, "activity call": "inactive"}
{"gene": "HEXA-AS1 (HEXA antisense RNA 1)", "robust z-score, replicate 1": 0.819, "robust z-score, replicate 2": 1.05, "robust z-score, replicate 3": 1.62, "activity call": "inactive"}

Limited to “robust z-score, replicate 1” (2 entries from above):
DIPK1B (divergent protein kinase domain 1B): -0.908
GATAD1 (GATA zinc finger domain containing 1): -0.752
